Measurements as given in PMC5059474.
Results are given in words; binding and its absence hold for the method and conditions named. Binding seen in cells or lysates may run through a third protein. Some binding calls cover weakened binding; strength is not graded here.

Sequences of proteins named here, by UniProt entry; tags and fusion partners are left off.
UniProt Q12888: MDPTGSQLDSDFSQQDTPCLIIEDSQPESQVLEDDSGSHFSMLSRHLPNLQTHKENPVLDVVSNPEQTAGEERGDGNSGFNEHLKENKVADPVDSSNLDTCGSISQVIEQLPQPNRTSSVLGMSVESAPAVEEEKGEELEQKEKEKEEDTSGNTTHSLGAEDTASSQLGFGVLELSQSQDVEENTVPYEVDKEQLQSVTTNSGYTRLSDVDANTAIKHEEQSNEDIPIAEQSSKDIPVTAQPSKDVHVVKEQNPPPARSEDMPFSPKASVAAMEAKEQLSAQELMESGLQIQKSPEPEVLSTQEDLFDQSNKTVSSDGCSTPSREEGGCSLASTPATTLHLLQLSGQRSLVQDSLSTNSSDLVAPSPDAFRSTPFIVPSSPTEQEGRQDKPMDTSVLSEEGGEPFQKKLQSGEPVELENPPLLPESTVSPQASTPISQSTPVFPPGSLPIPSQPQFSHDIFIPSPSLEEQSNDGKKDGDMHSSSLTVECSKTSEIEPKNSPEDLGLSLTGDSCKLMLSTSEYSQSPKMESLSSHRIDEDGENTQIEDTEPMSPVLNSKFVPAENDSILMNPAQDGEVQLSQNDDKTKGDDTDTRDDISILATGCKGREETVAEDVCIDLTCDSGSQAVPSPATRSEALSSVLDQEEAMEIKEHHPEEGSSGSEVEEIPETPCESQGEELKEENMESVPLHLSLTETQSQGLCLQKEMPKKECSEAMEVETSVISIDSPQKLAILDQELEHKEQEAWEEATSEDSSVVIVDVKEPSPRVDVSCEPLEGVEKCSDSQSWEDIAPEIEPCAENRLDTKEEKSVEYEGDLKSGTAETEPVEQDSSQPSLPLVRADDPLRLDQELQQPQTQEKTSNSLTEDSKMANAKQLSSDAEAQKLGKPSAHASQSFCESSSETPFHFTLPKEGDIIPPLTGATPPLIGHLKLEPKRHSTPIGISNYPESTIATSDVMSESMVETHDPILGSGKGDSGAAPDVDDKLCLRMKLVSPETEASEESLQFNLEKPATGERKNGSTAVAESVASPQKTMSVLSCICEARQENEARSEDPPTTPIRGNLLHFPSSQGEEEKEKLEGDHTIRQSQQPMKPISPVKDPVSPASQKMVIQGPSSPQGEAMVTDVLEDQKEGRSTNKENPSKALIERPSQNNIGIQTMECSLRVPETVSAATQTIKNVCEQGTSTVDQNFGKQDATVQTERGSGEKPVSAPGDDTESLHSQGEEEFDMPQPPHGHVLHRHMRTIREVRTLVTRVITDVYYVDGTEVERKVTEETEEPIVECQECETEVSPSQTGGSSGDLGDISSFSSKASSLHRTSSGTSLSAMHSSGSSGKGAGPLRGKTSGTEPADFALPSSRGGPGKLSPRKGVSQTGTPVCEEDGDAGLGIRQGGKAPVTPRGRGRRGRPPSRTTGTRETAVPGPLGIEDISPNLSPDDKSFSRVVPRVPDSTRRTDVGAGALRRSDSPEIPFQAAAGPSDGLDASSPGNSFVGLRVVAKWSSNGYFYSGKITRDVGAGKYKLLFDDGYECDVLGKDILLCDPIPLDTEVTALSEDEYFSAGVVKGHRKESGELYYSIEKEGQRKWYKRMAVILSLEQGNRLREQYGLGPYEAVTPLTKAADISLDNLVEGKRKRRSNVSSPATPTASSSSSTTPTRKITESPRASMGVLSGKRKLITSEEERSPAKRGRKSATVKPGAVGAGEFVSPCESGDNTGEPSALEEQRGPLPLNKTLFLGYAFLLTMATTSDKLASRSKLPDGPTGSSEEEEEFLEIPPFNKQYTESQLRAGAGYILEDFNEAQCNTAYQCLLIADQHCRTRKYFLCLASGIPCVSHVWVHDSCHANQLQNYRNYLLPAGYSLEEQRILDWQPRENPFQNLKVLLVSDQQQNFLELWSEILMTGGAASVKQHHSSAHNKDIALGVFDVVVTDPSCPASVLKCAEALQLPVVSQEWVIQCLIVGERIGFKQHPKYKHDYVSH
UniProt P09874: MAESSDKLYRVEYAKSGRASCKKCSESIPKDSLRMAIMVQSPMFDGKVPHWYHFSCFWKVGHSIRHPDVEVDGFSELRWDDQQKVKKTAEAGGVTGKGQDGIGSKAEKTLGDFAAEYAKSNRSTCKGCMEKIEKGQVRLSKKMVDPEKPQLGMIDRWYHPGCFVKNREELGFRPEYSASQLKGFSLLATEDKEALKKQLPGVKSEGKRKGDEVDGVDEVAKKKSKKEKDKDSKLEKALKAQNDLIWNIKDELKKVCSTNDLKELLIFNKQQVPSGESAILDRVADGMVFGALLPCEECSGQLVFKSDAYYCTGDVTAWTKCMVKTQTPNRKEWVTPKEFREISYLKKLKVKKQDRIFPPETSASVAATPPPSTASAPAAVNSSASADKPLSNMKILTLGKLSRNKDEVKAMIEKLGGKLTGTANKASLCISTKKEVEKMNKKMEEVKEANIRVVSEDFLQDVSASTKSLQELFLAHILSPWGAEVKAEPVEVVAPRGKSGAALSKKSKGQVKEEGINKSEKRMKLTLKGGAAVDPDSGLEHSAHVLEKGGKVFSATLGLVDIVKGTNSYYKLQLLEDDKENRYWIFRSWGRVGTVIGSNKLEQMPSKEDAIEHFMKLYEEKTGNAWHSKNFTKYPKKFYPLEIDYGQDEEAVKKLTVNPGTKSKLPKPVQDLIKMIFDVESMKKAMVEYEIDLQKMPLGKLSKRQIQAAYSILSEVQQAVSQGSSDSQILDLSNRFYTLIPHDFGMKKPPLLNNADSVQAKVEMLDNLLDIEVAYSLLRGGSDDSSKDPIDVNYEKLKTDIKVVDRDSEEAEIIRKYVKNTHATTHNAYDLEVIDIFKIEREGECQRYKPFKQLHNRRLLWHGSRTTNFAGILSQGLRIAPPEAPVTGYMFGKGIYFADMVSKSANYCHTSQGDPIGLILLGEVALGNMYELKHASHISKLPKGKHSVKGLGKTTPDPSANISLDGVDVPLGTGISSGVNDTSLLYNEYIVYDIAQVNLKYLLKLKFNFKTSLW
UniProt Q06609: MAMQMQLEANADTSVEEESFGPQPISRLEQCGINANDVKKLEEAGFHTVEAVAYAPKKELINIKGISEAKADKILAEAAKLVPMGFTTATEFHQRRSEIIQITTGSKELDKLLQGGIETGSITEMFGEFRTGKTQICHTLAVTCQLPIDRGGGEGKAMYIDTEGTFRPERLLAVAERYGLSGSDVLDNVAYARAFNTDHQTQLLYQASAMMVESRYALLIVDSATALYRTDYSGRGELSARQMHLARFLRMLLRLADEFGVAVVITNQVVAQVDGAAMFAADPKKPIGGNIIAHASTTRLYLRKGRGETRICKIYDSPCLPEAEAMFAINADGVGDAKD
UniProt P18887: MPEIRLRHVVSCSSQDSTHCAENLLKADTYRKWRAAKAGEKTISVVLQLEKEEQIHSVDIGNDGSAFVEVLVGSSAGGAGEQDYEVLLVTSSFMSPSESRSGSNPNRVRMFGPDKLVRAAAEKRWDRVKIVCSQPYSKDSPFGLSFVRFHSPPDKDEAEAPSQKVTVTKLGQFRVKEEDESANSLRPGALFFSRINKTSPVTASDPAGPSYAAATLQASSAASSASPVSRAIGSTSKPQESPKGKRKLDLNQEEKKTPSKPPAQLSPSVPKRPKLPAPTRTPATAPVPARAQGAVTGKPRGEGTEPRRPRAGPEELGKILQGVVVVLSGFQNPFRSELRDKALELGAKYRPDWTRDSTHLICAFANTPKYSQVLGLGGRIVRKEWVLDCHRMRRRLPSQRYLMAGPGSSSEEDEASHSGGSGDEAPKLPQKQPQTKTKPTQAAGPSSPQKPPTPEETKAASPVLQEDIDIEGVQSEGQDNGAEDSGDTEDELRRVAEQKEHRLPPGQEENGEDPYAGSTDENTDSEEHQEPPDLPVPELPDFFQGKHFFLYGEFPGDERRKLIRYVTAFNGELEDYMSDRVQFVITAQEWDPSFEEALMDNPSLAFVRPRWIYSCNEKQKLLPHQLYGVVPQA

Key:
Assay in all cases: co-IP; benzonase-treated nuclear extracts of HEK293 cells (mock, Bleo 30 μg/ml 1 h, 10–12 h recovery after Bleo, or IR 5 grey); IP with 2-5 μg antibody to the endogenous bait or control IgG and Protein A/G PLUS agarose; three washes with 20 mM HEPES pH 7.9, 150 mM KCl, 0.25% Triton-X-100; western blot
[1] = target: 53BP1 (human (endogenous in HEK293)) (UniProt Q12888)
[2] = target: T1, Lig IV (human (endogenous in HEK293)) (UniProt P49917)
T1 sequence: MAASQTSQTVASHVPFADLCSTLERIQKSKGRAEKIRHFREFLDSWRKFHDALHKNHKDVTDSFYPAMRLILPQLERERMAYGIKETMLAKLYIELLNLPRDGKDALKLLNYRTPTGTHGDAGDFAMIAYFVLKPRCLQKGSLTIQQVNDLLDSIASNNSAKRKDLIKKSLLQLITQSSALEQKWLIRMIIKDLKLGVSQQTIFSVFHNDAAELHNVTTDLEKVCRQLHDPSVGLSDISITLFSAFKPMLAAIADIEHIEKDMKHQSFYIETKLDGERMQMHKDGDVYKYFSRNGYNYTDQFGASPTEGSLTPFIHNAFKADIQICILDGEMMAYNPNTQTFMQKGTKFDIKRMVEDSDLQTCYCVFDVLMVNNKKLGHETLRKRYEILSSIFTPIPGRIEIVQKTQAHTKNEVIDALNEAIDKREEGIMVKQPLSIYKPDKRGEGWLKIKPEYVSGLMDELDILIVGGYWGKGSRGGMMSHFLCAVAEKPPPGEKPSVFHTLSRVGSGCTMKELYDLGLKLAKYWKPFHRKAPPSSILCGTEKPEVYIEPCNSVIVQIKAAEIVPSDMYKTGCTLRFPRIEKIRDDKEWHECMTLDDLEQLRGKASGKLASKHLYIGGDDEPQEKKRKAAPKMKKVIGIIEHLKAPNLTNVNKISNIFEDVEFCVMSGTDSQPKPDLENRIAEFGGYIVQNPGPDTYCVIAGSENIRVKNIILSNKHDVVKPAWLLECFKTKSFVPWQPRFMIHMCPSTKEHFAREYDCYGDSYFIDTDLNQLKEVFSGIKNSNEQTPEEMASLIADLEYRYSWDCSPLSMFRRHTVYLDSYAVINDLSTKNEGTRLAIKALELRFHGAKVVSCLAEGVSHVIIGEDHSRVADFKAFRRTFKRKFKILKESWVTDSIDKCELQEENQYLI

[3] = target: polynucleotide kinase 3′ phosphatase (human (endogenous in HEK293)) (UniProt Q96T60)
[4] = target: PARP1 (human (endogenous in HEK293)) (UniProt P09874)

Row | binding [1] | binding [2] | binding [3] | binding [4] | Substance
1 | no binding | no binding | no binding |  | RAD51 (from UniProt Q06609 1-339)
2 |  | no binding |  |  | XRCC1 (from UniProt P18887 1-633)
3 |  |  |  | binds | polynucleotide kinase 3′ phosphatase (from UniProt Q96T60 1-521) (enzyme)
